In paper PMC6509336, “Wnt5a is a TLR2/4-ligand that induces tolerance in human myeloid cells” (Communications Biology, 2019):
No constants are given. Whether binding was seen depends on the method and setting. Some entries that bind do so weakly or less than the wild type.

By UniProt entry, the sequences of proteins in these tests, tags left out. Residues count along the entry.
UniProt O00206, residues 24-631: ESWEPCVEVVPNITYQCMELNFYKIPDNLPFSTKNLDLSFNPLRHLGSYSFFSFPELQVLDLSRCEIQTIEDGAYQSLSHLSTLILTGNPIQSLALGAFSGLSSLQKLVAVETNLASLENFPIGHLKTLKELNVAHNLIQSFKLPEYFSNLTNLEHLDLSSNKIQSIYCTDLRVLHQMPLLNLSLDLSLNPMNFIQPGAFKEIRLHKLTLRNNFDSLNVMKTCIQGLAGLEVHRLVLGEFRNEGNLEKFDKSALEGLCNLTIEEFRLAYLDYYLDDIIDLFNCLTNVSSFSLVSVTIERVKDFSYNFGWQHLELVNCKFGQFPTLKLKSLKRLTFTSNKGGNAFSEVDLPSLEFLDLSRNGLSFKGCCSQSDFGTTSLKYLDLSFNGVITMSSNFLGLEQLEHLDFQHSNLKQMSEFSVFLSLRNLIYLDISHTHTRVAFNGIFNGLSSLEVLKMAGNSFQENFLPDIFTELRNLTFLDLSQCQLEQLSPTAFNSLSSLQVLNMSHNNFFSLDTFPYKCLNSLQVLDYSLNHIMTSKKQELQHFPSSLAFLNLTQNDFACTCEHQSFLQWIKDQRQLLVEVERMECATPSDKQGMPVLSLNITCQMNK

Biological target: T1, rhTLR4 (human, UniProt O00206 24-631)
T1 construct: toll-like receptor 4, recombinant human protein from R&D Systems; No catalogue number or construct limits are printed; also called rhTLR4-his; source: bought: R&D Systems
Experiment: native gel or EMSA; rhTLR4 (2.2 ug) and rWnt5a (0.20 ug) mixed at 1:2 molar ratio, 30 min on ice in 10 mM HEPES pH 7.9, 50 mM KCl, 0.2 mM EDTA, 1 mM DTT, 2.5 mM MgCl2, 10% glycerol, 0.05% NP-40; 7% native PAGE; silver stain or blot with anti-Wnt5a and anti-His; the band analysed by LC-MS/MS; both purified

binding: binds
B1: recombinant human/mouse (rh/m)Wnt5a (ligand, UniProt P41221 62-380, looked up)
chain: IIGAQPLCSQLAGLSQGQKKLCHLYQDHMQYIGEGAKTGIKECQYQFRHRRWNCSTVDNTSVFGRVMQIGSRETAFTYAVSAAGVVNAMSRACREGELSTCGCSRAARPKDLPRDWLWGGCGDNIDYGYRFAKEFVDARERERIHAKGSYESARILMNLHNNEAGRRTVYNLADVACKCHGVSGSCSLKTCWLQLADFRKVGDALKEKYDSAAAMRLNSRGKLVQVNSRFNSPTTQDLVYIDPSPDYCVRNESTGSLGTQGRLCNKTSEGMDGCELMCCGRGYDQFKTVQTERCHCKFHWCCYVKCKKCTEIVDQFVCK
notes: Wnt5a, recombinant human/mouse protein from R&D Systems, molecular weight 38,000; Lyophilized from PBS, EDTA and CHAPS; No catalogue number is printed; also called rWnt5a; source: bought: R&D Systems
